Results are given in words; binding and its absence hold for the method and conditions named. Binding seen in cells or lysates may run through a third protein.

Chains of the proteins cited; added tags and fusions are not shown.
UniProt O00571: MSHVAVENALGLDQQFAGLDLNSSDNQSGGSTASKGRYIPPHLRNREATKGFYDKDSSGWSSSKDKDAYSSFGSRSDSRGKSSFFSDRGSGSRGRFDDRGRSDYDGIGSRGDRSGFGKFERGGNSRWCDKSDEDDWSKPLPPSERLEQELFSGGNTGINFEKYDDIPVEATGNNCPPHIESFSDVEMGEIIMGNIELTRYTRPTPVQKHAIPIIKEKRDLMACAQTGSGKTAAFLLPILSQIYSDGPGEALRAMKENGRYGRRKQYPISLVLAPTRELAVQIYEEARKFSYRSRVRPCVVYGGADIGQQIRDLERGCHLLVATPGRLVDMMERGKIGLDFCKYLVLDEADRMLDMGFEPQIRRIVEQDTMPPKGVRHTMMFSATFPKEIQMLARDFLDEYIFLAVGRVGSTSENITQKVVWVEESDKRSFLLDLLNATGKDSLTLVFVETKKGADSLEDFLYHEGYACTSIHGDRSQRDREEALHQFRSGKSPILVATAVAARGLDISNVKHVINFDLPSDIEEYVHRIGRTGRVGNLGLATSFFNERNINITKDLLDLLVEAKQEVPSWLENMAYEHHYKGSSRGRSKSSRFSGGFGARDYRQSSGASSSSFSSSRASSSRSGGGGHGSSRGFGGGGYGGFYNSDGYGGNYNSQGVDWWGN

The target of the assay is DDX3X (UniProt O00571). Nature of the assay: co-IP; co-immunoprecipitation in lung cancer cells; which protein was precipitated and the conditions are not told in the text shown.

B1: JUND (protein, UniProt P17535 1-347)
chain: METPFYGDEALSGLGGGASGSGGSFASPGRLFPGAPPTAAAGSMMKKDALTLSLSEQVAAALKPAAAPPPTPLRADGAPSAAPPDGLLASPDLGLLKLASPELERLIIQSNGLVTTTPTSSQFLYPKVAASEEQEFAEGFVKALEDLHKQNQLGAGAAAAAAAAAAGGPSGTATGSAPPGELAPAAAAPEAPVYANLSSYAGGAGGAGGAATVAFAAEPVPFPPPPPPGALGPPRLAALKDEPQTVPDVPSFGESPPLSPIDMDTQERIKAERKRLRNRIAASKCRKRKLERISRLEEKVKTLKSQNTELASTASLLREQVAQLKQKVLSHVNSGCQLLPQHQVPAY
In the case of B1, the binding entry is given as “no binding”.

The values are drawn from PMC12398621.
